Source: patent US20240368221A1, “IMPATIENS BALSAMINA-DERIVED ANTI-BACTERIAL PEPTIDE AND ANTI-BACTERIAL COMPOSITION CONTAINING SAME” (V&CO CO., LTD., priority 2021, published 2024)
Converted amounts (≈) assume the structure as drawn. Part of at least one peptide drawing is inferred or uncertain, most often the ends. Where a SMILES comes first, the peptide text is derived from it.

Tests used:
Format in all cases: cell-based
[1] = system: Staphylococcus aureus KCTC 1621
Experimental: (§1) To examine the antimicrobial and antifungal activity of the six types of peptide derivatives prepared in Example 1, antimicrobial and antifungal activity was analyzed using three types of bacterial strains and two types of fungal strains.
(§2) Specifically, to analyze antimicrobial and antifungal activity, a minimal inhibitory concentration (MIC) was measured. The three types of bacterial strains included Escherichia coli KCCM 41290, Staphylococcus aureus KCTC 1621, and Cutibacterium acnes KCTC 3314, and the two types of fungal strains included Candida albicans KCTC 17712, and Aspergillus niger KCTC 6317. The culture of Escherichia coli and Staphylococcus aureus was performed in Luria-Bertani (LB) medium (BD Difco), and the culture of Cutibacterium acnes was performed in reinforced clostridial medium (RCM, BD Difco). The culture of Candida albicans and Aspergillus niger was performed in potato dextrose (PD) medium (BD Difco). The pre-cultured microorganisms or spores were diluted in a medium to 5×10^3 CFU/mL, and each of the six types of peptide derivatives prepared in Example 1 was added at a predetermined concentration. Afterward, a bacterial strain was cultured at 37° C., a fungal strain was cultured at 25° C. for 18 to 24 hours, and optical densities (OD600) were measured using a microplate reader. Fluorescence values (Ex560 and Em600), instead of optical densities, were measured after adding a resazurin reagent to the Aspergillus niger medium to have a concentration of 100 μM. As a control, Ib-AMP4 was used, and the analysis results were expressed as the average of three repeated experiments.

[2] = system: Escherichia coli KCCM 41290
Experimental: as §1, §2

[3] = system: Candida albicans KCTC 17712; settings: PD medium, 25° C., 18 to 24 hours, OD600
Experimental: as §1, §2

[4] = system: Aspergillus niger KCTC 6317; settings: PD medium, 25° C., 18 to 24 hours, resazurin fluorescence
Experimental: as §1, §2

Q: Which results are given for `N=C(N)NCCC[C@H](NC(=O)[C@H](CCCNC(=N)N)NC(=O)[C@H](Cc1c[nH]c2ccccc12)NC(=O)[C@H](Cc1ccc(O)cc1)NC(=O)[C@H](CCCNC(=N)N)NC(=O)[C@H](CCCNC(=N)N)NC(=O)[C@H](Cc1c[nH]c2ccccc12)NC(=O)[C@@H]1CCCN1C(=O)CN)C(N)=O` [VESCA3] (H-GPWRRYWRR-NH2)?
A: antimicrobial activity (in words) [1]: excellent antimicrobial activity; antimicrobial activity (MIC) ([1]; text of b72): 5 g/mL; antimicrobial activity (in words) [2]: excellent antimicrobial activity; MIC ([2]; LB medium, 37° C., 18 to 24 hours, OD600): 60 µg/mL (≈ 45.1 µM); MIC [3]: 20 µg/mL (≈ 15 µM); MIC [4]: 40 µg/mL (≈ 30 µM)
